Laboratory results as given in article PMC8305169, “Two Pathway-Specific Transcriptional Regulators, PltR and PltZ, Coordinate Autoinduction of Pyoluteorin in Pseudomonas protegens Pf-5” (Microorganisms, 2021).

Biological target: T1, PltZ (Pseudomonas protegens Pf-5) (UniProt Q4KCY3)
T1 sequence (looked up, limits assumed): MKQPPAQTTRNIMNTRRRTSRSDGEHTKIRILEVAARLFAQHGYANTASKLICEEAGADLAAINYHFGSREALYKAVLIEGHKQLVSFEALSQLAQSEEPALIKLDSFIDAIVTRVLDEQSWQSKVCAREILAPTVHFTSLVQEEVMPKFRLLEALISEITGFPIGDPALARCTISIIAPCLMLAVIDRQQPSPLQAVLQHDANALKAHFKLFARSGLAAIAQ
Test: EMSA
Settings: EMSA: LightShift kit, 1 nM biotin-labeled probe, 20 uL, 25 C, 20 min, 5% native PAGE in 0.5x TBE at 4 C, protein stock in 20 mM Tris pH 7.0, 100 mM NaCl, recombinant protein, protein details: N-terminal 6xHis (pET28a), label: 3' biotin

Sequence | binding result | binding result (pyoluteorin (micromolar) releases the probe)
TATTTTCTAATTTAAATTCAAATTGAATTTTAATTAGGCCTTGG (double strand) [pltIZ probe] | binds | binds more weakly
TCGGGGCTGTTTTGCCTTTGCGGATATGCAAAGGCCTTTTGCAAAAACGGCTATTCACAAGTGCAT (double strand) [pltRL probe] | no binding | –

The exact form of at least one protein or probe is not confirmed. A negative result means that nothing was seen under these conditions. Protein sequences can lack the tags named with them. A weaker result is weaker than the reference pair of the same experiment.
